# Measurements reported in PubChem BioAssay AID540256 (National Center for Advancing Translational Sciences (NCATS), 2011).
# The campaign covered roughly 300,000 compounds. About 3,700 (1.2%) were called active. This list was built around the results that the source calls inconclusive (neither active nor inactive); the mix of calls is not that of the screen. Calls follow the shape of the full dose curve; tested in HEK293 cells. Potencies of inconclusive entries are doubtful fits and often do not repeat.
# Experiment: qHTS for Inhibitors of binding or entry into cells for Lassa Virus; also: nearly all actives have a fitted effect of over 50% in size
# Settings: Lassa virus pseudotype entry inhibition, cell reporter; series mostly up to 37.9 µM
# Potency is read from the fitted curve at half-maximal effect.
row,SMILES,Potency
1,COCCNC(=O)C(c1ccc(Cl)cc1)N(C(=O)Cn1nnc2ccccc21)c1cccnc1 (stereo not drawn),inactive
2,CCC1=Nc2cc(C(=O)NC3CCCC3)ccc2Sc2ccc(Cl)cc21,"inconclusive: 8.91 µM [inhibitor, partial curve, poor fit]"
3,O=C(Nc1ccc(Cl)cc1)Nc1ccccc1CC[N+](=O)[O-],"inconclusive: 20 µM [inhibitor, single point]"
4,O=C(NN1CCOCC1)c1ccc(Cl)s1,inactive
5,COc1ccc(C2=Nc3ccc(C)cc3C(c3ccccc3)N2CC(=O)NN)cc1 (stereo not drawn),inactive
6,CCOC(=O)c1c(CS(=O)(=O)c2ccccc2)n(C)c2cc(Br)c(O)c(CN(C)C)c12,inactive
7,Cc1cccc(NC(=O)C(=O)NCC(c2cccnc2)N2CCN(Cc3ccccc3)CC2)c1 (stereo not drawn),inactive
8,Cn1c(C(=O)NCCc2ccccc2)cc2cc(S(=O)(=O)N3CCCCC3)ccc21,"inconclusive: 7.94 µM [inhibitor, partial curve]"
9,CCOc1ccc(/C(O)=C2/C(=O)C(=O)N(c3ccccn3)C2c2ccc(Cl)cc2)c(C)c1 (stereo not drawn),"inconclusive: 6.31 µM [inhibitor, single point]"
10,O=C(CN1CCN(Cc2ccccc2Cl)CC1)N=Nc1c(O)[nH]c2ccccc12,"inconclusive: 20 µM [inhibitor, partial curve, poor fit]"
11,COC(=O)c1[nH]c2ccc(C)cc2c1NC(=O)CN1CCN(c2ccc(F)cc2)CC1,active: 12.6 µM
12,O=S(=O)(c1ccccc1Cl)N1CCCC1c1nc(-c2ccccc2Cl)no1 (stereo not drawn),"inconclusive: 29.1 µM [inhibitor, single point]"
13,FC(F)(F)c1cccc(OCCN2CCN(Cc3ccccc3)CC2)c1,inactive
14,CC(c1ccco1)N(C(=O)c1cccc(Br)c1)c1ccccn1 (stereo not drawn),"inconclusive: 5.62 µM [activator, single point]"
15,O=C(Nc1ccc(-c2nnc(-c3ccccc3)o2)cc1)C(F)(F)F,"inconclusive: 11.2 µM [inhibitor, single point]"
16,COc1ccccc1-c1noc(CCC(=O)Nc2cccc(C(F)(F)F)c2)n1,"inconclusive: 20.6 µM [inhibitor, single point]"
17,CCCCN1CNC(=S)N(CCc2ccc(OCC)c(OCC)c2)C1,"inconclusive: 6.31 µM [inhibitor, single point]"
18,C=CCN(c1ccccc1)S(=O)(=O)c1cccc(C(=O)Nc2nc3ccccc3[nH]2)c1,inactive
19,CCOc1ccc(/C=N/NC(=O)CN2CCSCC2)cc1,inactive
20,CC1CN(C(=O)Nc2ccc(C(=O)NCCc3ccc(Cl)cc3)cc2)c2ccccc2S1 (stereo not drawn),"inconclusive: 3.16 µM [activator, single point]"
21,COCCn1c(C)cc(O)c(C(c2ccc(OC)cc2)N2CCCCC2)c1=O (stereo not drawn),"inconclusive: 35.5 µM [inhibitor, single point]"
22,CC(C)c1ccc(N=C2NN=C(c3cccs3)CS2)cc1,"inconclusive: 7.08 µM [activator, partial curve, poor fit]"

# Random excerpt: three compounds from above, in no set order.
row,SMILES,Potency
12,O=S(=O)(c1ccccc1Cl)N1CCCC1c1nc(-c2ccccc2Cl)no1 (stereo not drawn),"inconclusive: 29.1 µM [inhibitor, single point]"
15,O=C(Nc1ccc(-c2nnc(-c3ccccc3)o2)cc1)C(F)(F)F,"inconclusive: 11.2 µM [inhibitor, single point]"
18,C=CCN(c1ccccc1)S(=O)(=O)c1cccc(C(=O)Nc2nc3ccccc3[nH]2)c1,inactive

# (list continues)

row,SMILES,Potency
1,O=C(NCc1ccc2c(c1)OCO2)C(=S)N1CCOCC1,inactive
2,O=C(CSC1=NS(=O)(=O)c2ccccc2N1)Nc1ccccc1F,inactive
3,O=C(N/N=C/c1c(F)c(F)c(F)c(F)c1F)c1ccc(Cn2cc(Br)cn2)o1,"inconclusive: 17.8 µM [inhibitor, single point]"
4,CC(=O)C1=C(c2cccc([N+](=O)[O-])c2)N(C(C)=O)n2c(C)nnc2S1,"inconclusive: 29.1 µM [inhibitor, single point]"
5,Clc1ccc(CNc2nccc(-c3cnn4ncccc34)n2)cc1,"inconclusive: 1.99 µM [inhibitor, single point]"
6,O=C(NC(Cc1ccccc1)C(=O)O)/C(=C\c1ccco1)NC(=O)c1ccccc1 (stereo not drawn),"inconclusive: 6.31 µM [inhibitor, single point]"
7,Cc1nnc(Nc2ccc(C(=O)N3CCOCC3)cc2)c2ccccc12,"inconclusive: 35.5 µM [activator, single point]"
8,O=c1c2ccccc2nc(/C=C/c2cccnc2)n1Cc1ccccc1,"inconclusive: 20 µM [inhibitor, partial curve, poor fit]"
9,Cc1ccc(NC(=S)N/N=C/c2c(Cl)cccc2Cl)c(C)c1,"inconclusive: 0.891 µM [inhibitor, full curve, poor fit]"
10,Cc1cccc(N2CCN(C(=O)C3CCN(S(=O)(=O)Cc4ccccc4)CC3)CC2)c1C,inactive
11,Cc1ccc(C(=O)Nc2nnc(SCC(=O)N3CCCc4ccccc43)s2)cc1,active: 3.55 µM
12,CCOCCCn1c(SCc2nc3ccccc3s2)nc2ccccc2c1=O,"inconclusive: 12.6 µM [inhibitor, partial curve, poor fit]"
13,CCn1c(=O)c(C(=O)CN2CCCc3ccccc32)c(N)n(Cc2ccccc2)c1=O,"inconclusive: 29.1 µM [inhibitor, single point]"
14,CC(C)c1cnc2c(c1SCC(=O)c1ccc(Cl)cc1)c(=O)n(C)c(=O)n2C,"inconclusive: 35.5 µM [inhibitor, single point]"
15,O=C(Cc1ccc(F)cc1)Nc1nc(-c2ccc(F)cc2)cs1,"inconclusive: 1.58 µM [inhibitor, full curve, poor fit]"
16,O=C(CCCCl)Nc1nc(-c2ccc3c(c2)OCCO3)cs1,"inconclusive: 15.8 µM [inhibitor, single point]"
17,Cc1cc(OCCCC(=O)NCc2cccs2)ccc1Cl,"inconclusive: 35.5 µM [inhibitor, single point]"
18,O=C(CSc1nnc(-c2ccc(F)cc2)c2ccccc12)Nc1cccc(Cl)c1,inactive
19,CCOC(=O)c1c(Nc2ccc(OCC)cc2)nnc(-c2ccccc2)c1-c1ccccc1,"inconclusive: 3.98 µM [inhibitor, partial curve, poor fit]"
20,Cc1nc2cc(NC(=O)Nc3cccc([N+](=O)[O-])c3)ccc2n1C,"inconclusive: 10 µM [inhibitor, partial curve]"
21,COc1ccccc1C(=O)Nc1nnc(S(=O)(=O)N2CCCCC2)s1,inactive
